These are yes or no findings as the source states them, for the method shown. Some binding calls cover weakened binding; strength is not graded here.
T1: human sclerostin tryptic peptide T20.6 (human)
T1 sequence 1: DVSEYSCRELHFTR
T1 sequence 2: SAKPVTELVCSGQCGPAR
T1 sequence 3: WWRPSGPDFRCIPDRY
T1 sequence 4: LVASCKCKRLTR

T2: rat sclerostin peptide KWWRPNGPDFRCIPDRYRAQRV (rat)
T2 construct: Coupled to the plate through its cysteine
T2 peptide: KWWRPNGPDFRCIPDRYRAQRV


Tests used:
[1] = biological target: T1, human sclerostin tryptic peptide T20.6 (human); test: Biacore peptide epitope competition binding assay (FIG. 18)
[2] = biological target: T1, human sclerostin tryptic peptide T20.6 (human); test: Biacore peptide epitope competition binding assay
[3] = biological target: T1, human sclerostin tryptic peptide T20.6 (human); test: Biacore human sclerostin peptide epitope competition binding assay: 2 nM Mab preincubated with 20 nM sclerostin or peptide in solution, then injected over immobilised mature human sclerostin; a lost response means the Mab bound the competitor in solution
[4] = biological target: T1, human sclerostin tryptic peptide T20.6 (human); test: Biacore peptide epitope competition binding assay (FIG. 17)
[5] = biological target: T2, rat sclerostin peptide …; test: ELISA on rat sclerostin peptides coupled to sulfhydryl binding plates, antibody at 1 ug/ml
Experimental: A series of overlapping peptides (each peptide being approximately 20-25 amino acids long) were synthesized based on the known amino acid sequence of rat sclerostin (SEQ ID NO:98). […] This enabled the peptides to be bound to the assay plates by covalent coupling, using commercially available sulfhydryl binding plates (Costar), at a concentration of […], in phosphate buffered saline (PBS: pH 6.5) containing 1 mM EDTA. Following incubation for 1 hour at room temperature, the plates were washed three times with PBS containing 0.5% Tween 20. The plates were blocked by incubation with a PBS solution containing 0.5% fish skin gelatin (Sigma) for 30 minutes at room temperature and then washed three times in PBS containing 0.5% Tween 20.
Antibodies to be tested were diluted to 1 μg/ml in PBS containing 0.5% fish skin gelatin and incubated with the peptide-coated plates for 1 hour at room temperature. Excess antibody was removed by three washes with PBS, 0.5% Tween 20. […] Finally the plates were incubated with a horseradish peroxidase chromogenic substrate (TMB-Stable Stop, RDI) for 5 minutes at room temperature, the color development was stopped with acid, and the plates' optical density measured at 450 nm.

binding [1] | binding [2] | binding [3] | binding [4] | binding [5] | Binder
binds | binds | binds |  |  | Antibody D (antibody, mouse IgG1, kappa, V domains shown) VH: EVQLQQSGPELVTPGASVKISCKASGYTFTDHYMSWVKQSHGKSLEWIGDINPYSGETTYNQKFKGTATLTVDKSSSIAYMEIRGLTSEDSAVYYCARDDYDASPFAYWGQGTLVTVSA VL: DVQMIQSPSSLSASLGDIVTMTCQASQGTSINLNWFQQKPGKAPKLLIYGSSNLEDGVPSRFSGSRYGTDFTLTISSLEDEDLATYFCLQHSYLPYTFGGGTKLEIKR
 | binds | binds | binds |  | Antibody C (antibody, mouse IgG1, kappa, V domains shown) VH: EVQLQQSGPELVKPGTSVKMSCKASGYTFTDCYMNWVKQSHGKSLEWIGDINPFNGGTTYNQKFKGKATLTVDKSSSTAYMQLNSLTSDDSAVYYCARSHYYFDGRVPWDAMDYWGQGTSVTVSS VL: DIVLTQSPASLTVSLGLRATISCKASQSVDYDGDSYMNWYQQKPGQPPKLLIYAASNLESGIPARFSGNGSGTDFTLNIHPVEEEDAVTYYCQQSNEDPWTFGGGTKLEIKR
 |  |  |  | binds | Antibody 19 (antibody, V domains shown, also called Ab-19) VH: EVQLQQSGPELVKPGASVKMSCKASGFTFTDYIMHWVKQKPGQGLEWIGYINPYNDDTEYNEKFKGKATLTSDKSSSTAYMDLSSLTSEGSAVYYCARSIYYYDAPFAYWGQGTLVTVSS VL: DIQMTQTTSSLSASLGDRVNISCRASQDISSYLNWYQQKPDGTVKLLIYSTSRLNSGVPSRFSGSGSGTDYSLTISNLAQEDIATYFCQQDIKHPTFGGGTKLELKR

Reference: patent US20070110747A1 (Amgen, published 2007)
